From the supplement of paper PMC8866396
Where a name gives a salt, the structure may show the parent alone. ± gives the standard deviation of the averaged measurements. Some of the results follow. This data set is noisy: repeats of one test often differ as much as different tests do.

Tests used:
IL-6-GFP PC-9GR = assay: IL-6-GFP fluorescence relative to DMSO control (fraction of control); higher = more IL-6-GFP expression; details: compound concentration: 10 uM; treatment time: 48 h
Experimental: (§1)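 IL-6-GFP-overexpressing PC-9 and PC-9GR EGFR-mutant lung cancer cells (3000 cells/well, 96-well) were treated for 48 h with each compound of the Selleck L2000 library at 10 uM. IL-6-GFP fluorescence was read on a high-content screening system, and viability by CCK-8 absorbance on a parallel plate set. Each value was normalised as compound well / DMSO control well; two independent replicates.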

IL-6-GFP PC-9 = assay: as above; details: compound concentration: 10 uM; treatment time: 48 h
Experimental: as §1

Compound	IL-6-GFP fluorescence (IL-6-GFP PC-9GR)	IL-6-GFP fluorescence (IL-6-GFP PC-9)
COc1cc2c(cc1OC)C1CC(OC(=O)C(N)C(C)C)C(CC(C)C)CN1CC2.Cc1ccc(S(=O)(=O)O)cc1.Cc1ccc(S(=O)(=O)O)cc1 (stereo not drawn) [Valbenazine tosylate]	2.49 ± 0.05	2.009 ± 0.018
CCC(c1ccc(O)cc1)C(CC)c1ccc(O)cc1 (stereo not drawn) [Hexestrol]	0.967 ± 0.05	0.78 ± 0.18
COc1cc(-c2coc3cc4c(c(OC)c3c2=O)OCO4)cc(OC)c1OC [Irisflorentin]	0.941 ± 0.092	0.901 ± 0.071
CCCCC(CC)CN1CN(CC(CC)CCCC)CC(C)(N)C1 (stereo not drawn) [Hexetidine]	0.857 ± 0.11	0.83 ± 0.13
COC(=O)c1cc(OC)c2c(c1-c1c(CO)cc(OC)c3c1OCO3)OCO2 [Bicyclol]	0.878 ± 0.019	0.856 ± 0.04
Cn1cnc2c(F)c(Nc3ccc(Br)cc3F)c(C(=O)NOCCO)cc21	0.863 ± 0.023	0.871 ± 0.028
COc1c(OC2OC(CO)C(O)C(O)C2O)cc2c(c1OC)-c1ccc(SC)c(=O)cc1C(NC(C)=O)CC2 (stereo not drawn) [Thiocolchicoside]	0.239 ± 0.0069	0.356 ± 0.011
CC(C(=O)O)c1ccc(C(=O)c2ccccc2)s1 (stereo not drawn) [Tiaprofenic acid]	0.911 ± 0.046	0.884 ± 0.022
Nc1n[n+]([O-])c2ccccc2[n+]1[O-] [Tirapazamine]	1.16 ± 0.32	1.02 ± 0.26
COC(=O)/C=C/C(=O)OC [Dimethyl Fumarate]	0.763 ± 0.17	0.76 ± 0.14
CCOC(=O)c1ccc(C#Cc2ccc3c(c2)C(C)(C)CCS3)nc1 [Tazarotene]	2.58 ± 1.3	2.08 ± 0.013
CS(=O)(=O)Nc1cc2occ(NC=O)c(=O)c2cc1Oc1ccccc1 [Iguratimod]	2.58 ± 0.37	2.15 ± 0.35
CCOC(=O)N1CCC(=C2c3ccc(Cl)cc3CCc3cccnc32)CC1 [Loratadine]	0.963 ± 0.014	1.04 ± 0.22
Cc1nc(Nc2ncc(C(=O)Nc3c(C)cccc3Cl)s2)cc(N2CCN(CCO)CC2)n1 [Dasatinib]	1.2 ± 0.14	1 ± 0.066
CC(=O)O.CCNC(=O)C1CCCN1C(=O)C(CCCNC(=N)N)NC(=O)C(CC(C)C)NC(=O)C(CC(C)C)NC(=O)C(Cc1ccc(O)cc1)NC(=O)C(CO)NC(=O)C(Cc1c[nH]c2ccccc12)NC(=O)C(Cc1c[nH]cn1)NC(=O)C1CCC(=O)N1 (stereo not drawn) [Leuprolide Acetate]	1.08 ± 0.39	0.761 ± 0.12
O.O.O=C([O-])CCNC(=O)c1ccc(N=Nc2ccc(O)c(C(=O)[O-])c2)cc1.[Na+].[Na+] [Balsalazide disodium]	0.554 ± 0.18	0.735 ± 0.28
O=C(Oc1ccccc1C(=O)O)c1ccccc1O [Sasapyrine]	0.697 ± 0.28	1.03 ± 0.11
CC1(C(=O)O)CCC2(C)CCC3(C)C(=CC(=O)C4C5(C)CCC(OC6OC(C(=O)O)C(O)C(O)C6OC6OC(C(=O)O)C(O)C(O)C6O)C(C)(C)C5CCC43C)C2C1 (stereo not drawn) [Glycyrrhizin (Glycyrrhizic Acid)]	0.887 ± 0.082	0.864 ± 0.27
COc1ccc2cc(CCC(C)=O)ccc2c1 [Nabumetone]	0.567 ± 0.45	1.03 ± 0.017
COc1cccc2c1C(=O)c1c(O)c3c(c(O)c1C2=O)CC(O)(C(=O)CO)CC3OC1CC(N)C(OC2CCCCO2)C(C)O1 (stereo not drawn) [Pirarubicin]	0.986 ± 0.15	0.863 ± 0.066

Compound	IL-6-GFP fluorescence (IL-6-GFP PC-9GR)	IL-6-GFP fluorescence (IL-6-GFP PC-9)
CC(Nc1ncnc2[nH]cnc12)c1cc2cccc(Cl)c2c(=O)n1-c1ccccc1 (stereo not drawn) [Duvelisib (IPI-145, INK1197)]	0.943 ± 0.075	0.913 ± 0.023
CCC(C)C(=O)OC1CC(O)C=C2C=CC(C)C(CCC(O)CC(O)CC(=O)[O-])C21.[Na+] (stereo not drawn) [Pravastatin sodium]	0.927 ± 0.013	0.779 ± 0.18
O=C1OC(OC(=O)c2cccnc2Nc2cccc(C(F)(F)F)c2)c2ccccc21 (stereo not drawn) [Talniflumate]	0.917 ± 0.039	0.8379 ± 0.003
O=C(O)C1CSCN1 (stereo not drawn) [Timonacic]	0.797 ± 0.25	0.762 ± 0.049
COc1cccc2c1C(=O)c1c(O)c3c(c(O)c1C2=O)CC(O)(C(=O)CO)CC3OC1CC(N)C(O)C(C)O1.Cl (stereo not drawn) [Epirubicin HCl]	0.742 ± 0.21	0.768 ± 0.23
N#Cc1cc(NC(=O)C(=O)O)c(Cl)c(NC(=O)C(=O)O)c1.NC(CO)(CO)CO.NC(CO)(CO)CO [Lodoxamide Tromethamine]	0.82 ± 0.5	0.427 ± 0.11
CC12CCC(CC1)C(C)(C)O2 [Eucalyptol]	0.591 ± 0.57	0.88 ± 0.029
O=C(O)Cc1ccccc1Nc1c(Cl)cccc1Cl [Diclofenac acid]	0.867 ± 0.037	0.747 ± 0.12
CC1CC2C3CCC4=CC(=O)C=CC4(C)C3(F)C(O)CC2(C)C1(O)C(=O)CO (stereo not drawn) [Dexamethasone (DHAP)]	1.08 ± 0.12	1.17 ± 0.16
CC(O)CO.CCOc1ccc(Cc2cc(C3OC(CO)C(O)C(O)C3O)ccc2Cl)cc1.O (stereo not drawn) [Dapagliflozin propanediol monohydrate]	0.901 ± 0.13	0.762 ± 0.047
CNCC(O)C(O)C(O)C(O)CO.Cc1c(Nc2ncccc2C(=O)O)cccc1C(F)(F)F [Flunixin Meglumin]	0.784 ± 0.061	0.759 ± 0.05
Nc1nc(F)nc2c1ncn2C1OC(COP(=O)(O)O)C(O)C1O (stereo not drawn) [Fludarabine Phosphate]	1.08 ± 0.099	1.12 ± 0.089
Cc1ccc(S(=O)(=O)O)cc1.NC(=O)c1cccc2cn(-c3ccc(C4CCCNC4)cc3)nc12 (stereo not drawn) [Niraparib (MK-4827) tosylate]	0.969 ± 0.011	0.911 ± 0.049
O=c1ccc2cc3ccoc3cc2o1 [Psoralen]	0.652 ± 0.52	1.14 ± 0.14
CC1CC2C3CCC4=CC(=O)C=CC4(C)C3(Cl)C(O)CC2(C)C1(OC(=O)c1ccco1)C(=O)CCl (stereo not drawn) [Mometasone furoate]	0.677 ± 0.26	1.02 ± 0.28
Cc1ccc(C(C)C)cc1 [p-Cymene]	0.821 ± 0.16	0.821 ± 0.047
CS(=O)(=O)O.Cc1ccc(NC(=O)c2ccc(CN3CCN(C)CC3)cc2)cc1Nc1nccc(-c2cccnc2)n1 [Imatinib Mesylate (STI571)]	0.853 ± 0.17	0.82 ± 0.1
CNC(=O)c1cc(Oc2ccc(NC(=O)Nc3ccc(Cl)c(C(F)(F)F)c3)c(F)c2)ccn1 [Regorafenib (BAY 73-4506)]	0.958 ± 0.14	1.02 ± 0.067
CCC(C)C(=O)OC1CC(O)C=C2C=CC(C)C(CCC(O)CC(O)CC(=O)O)C21 (stereo not drawn) [Pravastatin]	0.881 ± 0.049	0.775 ± 0.049
CCCC1CC(C(=O)NC(C(C)O)C2OC(SC)C(O)C(O)C2O)N(C)C1.Cl (stereo not drawn) [Lincomycin HCl]	1.11 ± 0.07	0.957 ± 0.23

Compound	IL-6-GFP fluorescence (IL-6-GFP PC-9GR)	IL-6-GFP fluorescence (IL-6-GFP PC-9)
Cc1ccc(Nc2nccc(N(C)c3ccc4c(C)n(C)nc4c3)n2)cc1S(N)(=O)=O.Cl	0.918 ± 0.034	0.977 ± 0.072
COc1cc(C2c3cc4c(cc3C(OC3OC5COC(C)OC5C(O)C3O)C3COC(=O)C23)OCO4)cc(OC)c1O (stereo not drawn) [Etoposide]	1 ± 0.057	0.988 ± 0.1
CC(=O)c1c(C)c2cnc(Nc3ccc(N4CCNCC4)cn3)nc2n(C2CCCC2)c1=O.O=S(=O)(O)CCO	0.785 ± 0.039	1.05 ± 0.08
O=C(OCC1OC(OC(=O)c2cc(O)c(O)c(OC(=O)c3cc(O)c(O)c(O)c3)c2)C(OC(=O)c2cc(O)c(O)c(OC(=O)c3cc(O)c(O)c(O)c3)c2)C(OC(=O)c2cc(O)c(O)c(OC(=O)c3cc(O)c(O)c(O)c3)c2)C1OC(=O)c1cc(O)c(O)c(OC(=O)c2cc(O)c(O)c(O)c2)c1)c1cc(O)c(O)c(OC(=O)c2cc(O)c(O)c(O)c2)c1 (stereo not drawn) [Tannic acid]	0.8053 ± 0.008	0.848 ± 0.18
O=C(CCCCCCC(=O)Nc1ccccc1)NO [Vorinostat (SAHA, MK0683)]	1.2 ± 0.033	1.11 ± 0.041
CCC(C)C(=O)OC1CC(C)C=C2C=CC(C)C(CCC3CC(O)CC(=O)O3)C21 (stereo not drawn) [Lovastatin]	0.803 ± 0.22	0.989 ± 0.21
O=C(O)COC(=O)Cc1ccccc1Nc1c(Cl)cccc1Cl [Aceclofenac]	0.899 ± 0.047	0.878 ± 0.19
Cc1c(O)c(C)c2c(c1O)C(=O)CC(c1ccc(O)cc1)O2 (stereo not drawn) [Farrerol]	1.01 ± 0.47	0.66 ± 0.42
O=C1Nc2ccccc2/C1=C1\Nc2ccccc2C1=O [Indirubin]	0.813 ± 0.049	0.872 ± 0.16
CCC1(O)C(=O)OCc2c1cc1n(c2=O)Cc2cc3cc(O)ccc3nc2-1 [(S)-10-Hydroxycamptothecin]	1.24 ± 0.79	1.39 ± 0.16
O=C([O-])Cc1ccccc1Nc1c(Cl)cccc1Cl.[Na+] [Diclofenac Sodium]	0.735 ± 0.018	0.795 ± 0.18
CNCC(O)c1ccc(O)c(O)c1.O=C(O)C(O)C(O)C(=O)O (stereo not drawn) [Epinephrine bitartrate]	1.78 ± 0.32	1.53 ± 0.75
Nc1ccccc1NC(=O)c1ccc(CNC(=O)OCc2cccnc2)cc1 [Entinostat (MS-275)]	1.1 ± 0.042	1.1 ± 0.17
NC(CC(=O)N1CCn2c(nnc2C(F)(F)F)C1)Cc1cc(F)c(F)cc1F.O.O=P(O)(O)O (stereo not drawn) [Sitagliptin phosphate monohydrate]	0.738 ± 0.13	1.13 ± 0.2
O=C1CCCC2C3CCC[N+]4([O-])CCCC(CN12)C34 (stereo not drawn) [Oxymatrine]	0.78 ± 0.33	0.875 ± 0.17
COc1cc2c3cc1Oc1c(OC)c(OC)cc4c1C(Cc1ccc(O)c(c1)Oc1ccc(cc1)CC3N(C)CC2)N(C)CC4 (stereo not drawn) [Berbamine]	0.969 ± 0.28	0.895 ± 0.16
OCC1OC(c2ccc(Cl)c(Cc3ccc(OC4CCOC4)cc3)c2)C(O)C(O)C1O (stereo not drawn)	0.92 ± 0.03	0.972 ± 0.16
O=S1(=O)CCN(CN2CCS(=O)(=O)NC2)CN1 [Taurolidine]	0.607 ± 0.34	0.771 ± 0.058
Cc1ccc(-c2ncc(Cl)cc2-c2ccc(S(C)(=O)=O)cc2)cn1 [Etoricoxib]	0.451 ± 0.35	0.873 ± 0.087

Reprinted at random: five compounds from above.
Compound	IL-6-GFP fluorescence (IL-6-GFP PC-9GR)	IL-6-GFP fluorescence (IL-6-GFP PC-9)
COC(=O)/C=C/C(=O)OC [Dimethyl Fumarate]	0.763 ± 0.17	0.76 ± 0.14
Cn1cnc2c(F)c(Nc3ccc(Br)cc3F)c(C(=O)NOCCO)cc21	0.863 ± 0.023	0.871 ± 0.028
CS(=O)(=O)Nc1cc2occ(NC=O)c(=O)c2cc1Oc1ccccc1 [Iguratimod]	2.58 ± 0.37	2.15 ± 0.35
NC(CC(=O)N1CCn2c(nnc2C(F)(F)F)C1)Cc1cc(F)c(F)cc1F.O.O=P(O)(O)O (stereo not drawn) [Sitagliptin phosphate monohydrate]	0.738 ± 0.13	1.13 ± 0.2
Cc1nc(Nc2ncc(C(=O)Nc3c(C)cccc3Cl)s2)cc(N2CCN(CCO)CC2)n1 [Dasatinib]	1.2 ± 0.14	1 ± 0.066
